{"sequences": {"note": "Protein sequences, listed by entry. Tags and fused reporters are not part of them.", "UniProt Q14191, whole entry, looked up": "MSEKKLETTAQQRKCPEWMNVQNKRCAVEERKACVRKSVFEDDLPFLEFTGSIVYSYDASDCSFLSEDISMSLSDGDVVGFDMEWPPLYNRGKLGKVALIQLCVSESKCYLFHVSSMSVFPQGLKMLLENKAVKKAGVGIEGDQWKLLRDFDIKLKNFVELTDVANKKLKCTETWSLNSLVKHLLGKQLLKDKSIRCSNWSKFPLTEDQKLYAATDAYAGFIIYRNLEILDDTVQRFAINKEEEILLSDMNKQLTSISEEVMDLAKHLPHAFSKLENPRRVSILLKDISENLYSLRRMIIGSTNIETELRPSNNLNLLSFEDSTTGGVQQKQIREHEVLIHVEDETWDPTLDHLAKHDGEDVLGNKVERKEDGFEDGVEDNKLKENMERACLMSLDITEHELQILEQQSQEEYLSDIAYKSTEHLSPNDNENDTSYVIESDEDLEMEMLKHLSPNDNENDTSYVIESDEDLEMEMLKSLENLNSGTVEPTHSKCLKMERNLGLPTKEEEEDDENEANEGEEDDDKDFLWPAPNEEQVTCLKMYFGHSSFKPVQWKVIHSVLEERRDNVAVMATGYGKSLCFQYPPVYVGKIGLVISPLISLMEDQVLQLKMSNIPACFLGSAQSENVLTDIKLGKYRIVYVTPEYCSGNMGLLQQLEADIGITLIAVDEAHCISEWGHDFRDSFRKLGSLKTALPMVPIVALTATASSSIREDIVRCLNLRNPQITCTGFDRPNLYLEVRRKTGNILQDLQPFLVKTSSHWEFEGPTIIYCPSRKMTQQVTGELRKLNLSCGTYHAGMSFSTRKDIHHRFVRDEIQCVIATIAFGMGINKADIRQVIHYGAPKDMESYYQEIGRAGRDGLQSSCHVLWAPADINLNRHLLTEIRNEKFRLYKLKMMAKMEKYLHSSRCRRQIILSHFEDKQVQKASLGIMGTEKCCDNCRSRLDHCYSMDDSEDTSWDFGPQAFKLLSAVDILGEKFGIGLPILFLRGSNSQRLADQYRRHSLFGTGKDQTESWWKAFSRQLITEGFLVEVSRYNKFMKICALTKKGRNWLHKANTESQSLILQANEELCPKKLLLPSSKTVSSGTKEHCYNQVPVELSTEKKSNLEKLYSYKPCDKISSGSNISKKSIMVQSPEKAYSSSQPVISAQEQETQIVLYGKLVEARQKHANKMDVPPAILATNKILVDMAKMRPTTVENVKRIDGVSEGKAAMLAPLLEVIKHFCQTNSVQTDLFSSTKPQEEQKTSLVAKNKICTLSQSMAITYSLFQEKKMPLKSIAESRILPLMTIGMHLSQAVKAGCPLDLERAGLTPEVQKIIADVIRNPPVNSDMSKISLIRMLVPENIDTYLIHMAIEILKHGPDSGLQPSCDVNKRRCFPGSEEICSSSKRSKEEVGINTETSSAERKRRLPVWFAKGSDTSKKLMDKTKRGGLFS"}, "source": "PubChem BioAssay AID651768", "about": "(National Center for Advancing Translational Sciences (NCATS), 2012)", "note": "About 1,700 (0.47%) of roughly 360,000 compounds were called active. This list was built around the results that the source calls inconclusive (neither active nor inactive); the mix of calls is not that of the screen. Calls follow the shape of the dose curve; as a rule, active = well fitted inhibition curve with a large enough effect; inconclusive = small, poorly fitted or top-dose-only effect; inactive = no such curve, though single readings can be large or run the other way. Where the call is inconclusive, the potency comes from a doubtful curve fit. % is scaled to controls: 0 for no effect and ±100 for the full control effect; potency is read from the fitted curve at half-maximal effect.", "data": [{"target": "Bifunctional 3'-5' exonuclease/ATP-dependent helicase WRN (Homo sapiens) (UniProt Q14191)", "assay": "qHTS for Inhibitors of WRN Helicase; also: nearly all actives have a fitted effect of over 55% in size", "conditions": "WRN helicase unwinding, fluorescent forked duplex, kinetic; activity change, negative = inhibition: at 114 µM (top of the series) unless noted", "procedure,_shortened": "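Screening of the MLSMR collection measured strand separation of a quenched forked DNA duplex (100 nM) by 20 nM WRN with 2 mM ATP, all final. Compounds were preincubated with enzyme 15 min at room temperature.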", "values": [{"smiles": "O=c1c2ccc([N+](=O)[O-])cc2ncn1CCOc1ccccc1", "activity change, negative = inhibition": "inactive: -2.21% [at 11.6 µM]"}, {"smiles": "COc1cc2c(cc1OC)C(C1C(=O)CC(C)(C)CC1=O)N(C(=O)CCl)CC2", "note": "(configuration not stated)", "Potency": "inconclusive: 89.1 µM [inhibitor, partial curve]"}, {"smiles": "CCC(C)n1c(OC)nc2c1c(=O)n(C)c(=O)n2C", "note": "(configuration not stated)", "Potency": "inconclusive: 89.1 µM [inhibitor, single point]"}, {"smiles": "CC(=O)c1c(C)[nH]c(C(=O)NCc2cccc(Cl)c2)c1C", "Potency": "inconclusive: 89.1 µM [inhibitor, single point]"}, {"smiles": "CCn1cc(C(=O)OCC(=O)c2cc(C)n(-c3ccccc3)c2C)c(=O)c2ccc(C)nc21", "Potency": "inconclusive: 25.1 µM [inhibitor, single point]"}, {"smiles": "O=c1c2ccccc2nc(SCc2ccccc2)n1CC1CCCO1", "note": "(configuration not stated)", "Potency": "inactive"}, {"smiles": "O=C(O)c1cc(O)c2c(c1)C(=O)c1cc(O)cc(O)c1C2=O", "Potency": "inconclusive: 63.1 µM [inhibitor, partial curve]"}, {"smiles": "CCCNC(=O)c1nnsc1S(=O)(=O)c1ccc(Cl)cc1", "Potency": "active: 28.2 µM"}, {"smiles": "O=C(O)COc1ccccc1C(Nc1cccnc1)c1cc(Cl)c2cccnc2c1O", "note": "(configuration not stated)", "Potency": "inconclusive: 31.6 µM [inhibitor, partial curve]"}, {"smiles": "Cc1cc(C)cc(C(=O)Nc2ccc(N3CCN(C(=O)c4ccco4)CC3)cc2)c1", "Potency": "inconclusive: 89.1 µM [inhibitor, single point]"}, {"smiles": "CCC(=O)N1CCc2cc(Br)cc(S(=O)(=O)CCC(=O)NCC3CCCO3)c21", "note": "(configuration not stated)", "Potency": "inconclusive: 31.6 µM [inhibitor, full curve, poor fit]"}, {"smiles": "CCN(CCCNC(=O)CCc1nc(-c2ccc(C)cc2)no1)c1cccc(C)c1", "Potency": "inactive"}, {"smiles": "O=[N+]([O-])c1ccc(/C=C/C2=NN(c3ccccc3)C(c3ccco3)C2)o1", "note": "(configuration not stated)", "Potency": "inconclusive: 22.4 µM [inhibitor, full curve]"}, {"smiles": "CCc1cccc(OCCCCNCCO)c1", "Potency": "inactive"}, {"smiles": "O=[N+]([O-])c1ccccc1NCc1ccccc1Cl", "Potency": "inconclusive: 89.1 µM [inhibitor, single point]"}, {"smiles": "CC(C)(C)c1ccc(CN2C(=O)c3ccccc3S2(=O)=O)cc1", "Potency": "inconclusive: 89.1 µM [inhibitor, single point]"}, {"smiles": "Brc1ccc(-c2nn3c(-c4ccco4)nnc3s2)o1", "Potency": "inconclusive: 39.8 µM [inhibitor, partial curve]"}, {"smiles": "COc1ccc([N+](=O)[O-])cc1NC(=O)Nc1ccc(OC)c(OC)c1", "Potency": "inconclusive: 79.4 µM [inhibitor, partial curve]"}, {"smiles": "COc1cccc(/C(O)=C/c2nc3ccc(C(=O)NCCc4cccc(C)c4)cc3[nH]c2=O)c1", "Potency": "active: 70.8 µM"}, {"smiles": "COC(=O)c1sccc1N/C=C(\\C#N)S(=O)(=O)C(C)(C)C", "Potency": "inconclusive: 8.91 µM [inhibitor, full curve, poor fit]"}, {"smiles": "O=C1C(Nc2cccc(O)c2)=C(N2CCCCC2)C(=O)c2ccccc21", "Potency": "inconclusive: 79.4 µM [inhibitor, partial curve]"}, {"smiles": "O=C(CCCn1c(=O)c2ccccc2n(CC(=O)NCc2ccco2)c1=O)NCc1ccco1", "Potency": "inactive"}, {"smiles": "CCOc1cccc(NC(=O)CSc2sc3c(O)cc(=O)[nH]c3c2C#N)c1", "Potency": "inactive"}, {"smiles": "CN(C(=O)c1ccccc1C(=O)OCC(=O)NCc1cccs1)C1CCCCC1", "Potency": "inconclusive: 89.1 µM [inhibitor, single point]"}, {"smiles": "Cc1c(N=Cc2cc(Br)cc(Br)c2O)cccc1C(=O)O", "Potency": "inconclusive: 50.1 µM [inhibitor, partial curve]"}, {"smiles": "Cc1cc2c(=Cc3ccc(N(C)C)cc3)c3ccccc3n2[n+]1C", "Potency": "active: 35.5 µM"}, {"smiles": "CN(C)CCCNc1c2ccccc2nc2ccccc12", "Potency": "inconclusive: 22.4 µM [inhibitor, full curve]"}, {"smiles": "N#CCNC(=O)C1CC(=O)N(CCc2ccc(F)cc2)C1", "note": "(configuration not stated)", "Potency": "inactive"}, {"smiles": "O=[N+]([O-])c1c(NCCCO)cc(Sc2nc3ccccc3s2)c2nonc12", "Potency": "active: 18.9 µM"}, {"smiles": "CCOC(=O)C(=Cc1ccc(Br)cc1)C(=O)OCC", "Potency": "inconclusive: 50.1 µM [inhibitor, partial curve]"}, {"smiles": "Cc1c(Cc2ccccc2)c(=O)oc2c(O)c(O)ccc12", "Potency": "active: 28.2 µM"}, {"smiles": "CCOC(=O)c1ccc(NC(=O)N2CCN(C(=O)C3CCCO3)CC2)cc1", "note": "(configuration not stated)", "Potency": "inconclusive: 31.6 µM [inhibitor, single point]"}, {"smiles": "CCCc1cc(=O)[nH]c(SCC(=O)Nc2cc(S(=O)(=O)N(CC)c3ccccc3)ccc2Cl)n1", "Potency": "inconclusive: 22.4 µM [inhibitor, full curve, poor fit]"}, {"smiles": "C#CCOCCOCCOCCNc1nc(N2CCN(C(=O)[C@H](CCCCN)n3cc([C@@H](N)C(C)CC)nn3)CC2)nc(N2CCN(C(=O)[C@H](Cc3cc4ccccc4[nH]3)n3cc([C@@H](N)CC(C)C)nn3)CC2)n1", "note": "(some centres not stated)", "Potency": "inconclusive: 56.2 µM [inhibitor, partial curve]"}, {"smiles": "CN(C)S(=O)(=O)c1cccc(C(=O)OCC(=O)Nc2sccc2C(N)=O)c1", "Potency": "inconclusive: 56.2 µM [inhibitor, partial curve]"}, {"smiles": "CN(C)CCCCOc1cccc(Br)c1", "Potency": "inconclusive: 39.8 µM [inhibitor, full curve]"}, {"smiles": "COC(=O)/C(=C\\c1ccc2c(c1)c1ccccc1n2C)NC(=O)c1ccccc1", "Potency": "inconclusive: 11.2 µM [inhibitor, partial curve]"}, {"smiles": "Cc1cc2c(cc(C(=O)OCC(=O)NC3CCCCC3)n2C)o1", "Potency": "inconclusive: 39.8 µM [inhibitor, single point]"}, {"smiles": "Cc1cccc(C(=O)N2CCC(N3CCC(C(=O)N4CCOCC4)CC3)CC2)c1", "Potency": "inconclusive: 89.1 µM [inhibitor, single point]"}, {"smiles": "COc1ccc(C(=O)OCc2cc(C)ccc2C)cc1S(=O)(=O)N1CCCC1", "Potency": "inconclusive: 22.4 µM [inhibitor, single point]"}, {"smiles": "Cc1cnc(C=NNC(N)=S)c2cccc(N)c12", "Potency": "inconclusive: 8.91 µM [inhibitor, full curve]"}, {"smiles": "Cc1cc(C(=O)OCC(=O)NCc2ccco2)c(C)o1", "Potency": "inconclusive: 79.4 µM [inhibitor, partial curve]"}, {"smiles": "O=C1/C(=C/c2ccco2)SC(=S)N1CC1CCCO1", "note": "(configuration not stated)", "Potency": "inconclusive: 56.2 µM [inhibitor, partial curve]"}, {"smiles": "Cc1cccc(-n2c3nc(=O)[nH]c(=O)c-3cc3cc([N+](=O)[O-])ccc32)c1", "Potency": "inactive"}, {"smiles": "COc1ccccc1N(CC(=O)NCCSCc1cccc(C)c1)S(=O)(=O)c1ccccc1", "Potency": "inconclusive: 20 µM [inhibitor, single point]"}, {"smiles": "O=C(c1ccco1)N1CCN(Cc2csc(-c3ccccc3Cl)n2)CC1", "Potency": "inactive"}, {"smiles": "C=CCC1=C/C(=C\\c2c(N)n3nc(CC(=O)N4CCOCC4)sc3nc2=O)C=C(OC)C1=O", "Potency": "inconclusive: 17.8 µM [inhibitor, single point]"}, {"smiles": "Cc1ccc(NC(=S)NNc2ccc(C(=O)O)cc2[N+](=O)[O-])cc1C", "Potency": "inactive"}, {"smiles": "CCCNC(=S)N1CCN(CC)CC1", "Potency": "inconclusive: 22.4 µM [inhibitor, single point]"}, {"smiles": "O=C(N/N=C/c1c[nH]c2ccccc12)c1cc(-c2ccc3ccccc3c2)n[nH]1", "Potency": "inconclusive: 11.2 µM [inhibitor, partial curve]"}, {"smiles": "Clc1nc(Cl)c2ncn(-c3ccccc3)c2n1", "Potency": "inconclusive: 20 µM [inhibitor, full curve]"}, {"smiles": "CNC(=S)N(Cc1ccco1)Cc1cc2cc3c(cc2[nH]c1=O)OCCO3", "Potency": "inconclusive: 20 µM [inhibitor, partial curve]"}, {"smiles": "CCn1c(SCC(=O)O)nc2sc3c(c2c1=O)CCC3", "Potency": "inconclusive: 44.7 µM [inhibitor, partial curve, poor fit]"}, {"smiles": "CN(C)S(=O)(=O)c1ccc(NC(=O)CN2CCCc3ccccc32)cc1", "Potency": "inconclusive: 79.4 µM [inhibitor, single point]"}, {"smiles": "CCCCN1C(N)=NC[C@@H]1CC1CCCCC1", "Potency": "inconclusive: 3.16 µM [inhibitor, partial curve, poor fit]"}, {"smiles": "Cc1cccc(C)c1NC(=O)CSCC(=O)c1ccc(O)c(O)c1", "Potency": "inconclusive: 44.7 µM [inhibitor, partial curve]"}, {"smiles": "Cc1cccc2c(=O)c(C(=O)NCc3ccc(F)cc3)c[nH]c12", "Potency": "inconclusive: 89.1 µM [inhibitor, single point]"}, {"smiles": "COCCCNC(=O)C1CC(=O)N(CCc2ccc(OC)c(OC)c2)C1", "note": "(configuration not stated)", "Potency": "inactive"}, {"smiles": "CCC(=O)N1CCCC(C)(C(=O)NS(=O)(=O)c2ccccc2Cl)C1", "note": "(configuration not stated)", "Potency": "inactive"}, {"smiles": "CCN(CC)CCNC(=O)CCCCn1c(=S)[nH]c2c([nH]c3ccc(OC)cc32)c1=O", "Potency": "inconclusive: 50.1 µM [inhibitor, partial curve]"}, {"smiles": "CCn1c2ccccc2c2nc3cc(S(=O)(=O)N4CCOCC4)ccc3nc21", "Potency": "inconclusive: 89.1 µM [inhibitor, partial curve, poor fit]"}, {"smiles": "O=C(/C=C/c1ccco1)NC(=S)Nc1cccc(-c2nc3ccccc3o2)c1", "Potency": "active: 50.1 µM"}, {"smiles": "COc1ccc(N=Cc2nc(-c3ccccc3)oc2OC(=O)c2ccccc2)cc1", "Potency": "inactive"}, {"smiles": "NC(=O)c1ccsc1NC(=O)COC(=O)c1ccc([N+](=O)[O-])o1", "Potency": "inactive"}, {"smiles": "CN=c1scc(-c2ccccc2F)n1/N=C/c1ccc(O)c(O)c1O", "Potency": "active: 56.2 µM"}, {"smiles": "O=C(NN=Cc1c(F)cccc1F)c1ccccc1NS(=O)(=O)c1cccs1", "Potency": "inconclusive: 79.4 µM [inhibitor, single point]"}, {"smiles": "Cc1c(C(=O)NNC(=O)c2ccccc2O)oc2ccc(Br)cc12", "Potency": "inconclusive: 44.7 µM [inhibitor, full curve, poor fit]"}]}]}
